Source: PubChem BioAssay AID1259280 (Sanger Institute, 2017)

- Aim: 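Kinome siRNA screen for partners that synergise with BYL719, cetuximab or trametinib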 (primary screen)
- System: human SNU407 colorectal cancer cells
- Knock-down reagent: siRNA pool against human genes
- Treatment: anchor drugs BYL719 at 1 µM, cetuximab at 5 µg/ml or trametinib at 10 nM, or DMSO vehicle alone; exposure time not given
- Measurement: 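Viability per well scaled to a non-targeting pool and averaged over replicates, with a robust z-score from controls and a synergy score per anchor drug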
- Reading the numbers: viability z-score, no drug and viability vs control, no drug: higher = more cells survive the knock-down; synergy with trametinib and synergy with BYL719 and synergy with cetuximab: higher = stronger synergy of knock-down with drug
- Hit rule: 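a knock-down counts as essential when its robust viability z-score without drug is below -3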
- Calls: active = essential (knock-down alone kills cells); inactive = no change without drug
Shown is an unselected part of 794 deposited reagents. Over the whole deposit, 12 (1.5%) are marked active. 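Calls cover knock-down without drug only; synergy scores stand apart, values above 0.15 being treated as synergy.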 Unmarked entries are inactive. No viability above 1 is reported: the scale is capped. Not given: the amount of reagent, the time to read-out.

gene	viability z-score, no drug	viability vs control, no drug (fraction of control)	synergy with trametinib	synergy with BYL719	synergy with cetuximab
STYK1 (STY kinase 1)	-0.166	0.919	0.0571	0.0689	0.0145
NEK4 (NIMA related kinase 4)	-0.0835	0.925	-0.0366	0.0443	-0.0518
IGF2R (insulin like growth factor 2 receptor)	0.901	1	-0.0869	-0.0269	0.024
KSR1 (kinase suppressor of ras 1)	-2.14	0.768	0.0794	0.158	0.00428
PRKCZ (protein kinase C zeta)	-1.23	0.837	-0.122	-0.038	0.0428
FGFR2 (fibroblast growth factor receptor 2)	-1.7	0.801	-0.109	-0.139	-0.059

A stretch taken from the entries so far, as a working copy:
gene	viability z-score, no drug	viability vs control, no drug (fraction of control)	synergy with trametinib	synergy with BYL719	synergy with cetuximab
IGF2R (insulin like growth factor 2 receptor)	0.901	1	-0.0869	-0.0269	0.024
KSR1 (kinase suppressor of ras 1)	-2.14	0.768	0.0794	0.158	0.00428

Next records:
gene	viability z-score, no drug	viability vs control, no drug (fraction of control)	synergy with trametinib	synergy with BYL719	synergy with cetuximab
ERBB4 (erb-b2 receptor tyrosine kinase 4)	-0.977	0.857	-0.0652	0.0331	0.0323
FYN (FYN proto-oncogene, Src family tyrosine kinase)	0.0136	0.932	0.0612	0.0949	-0.0527
IRAK2 (interleukin 1 receptor associated kinase 2)	0.901	1	-0.121	-0.0213	-0.07
PRKAR2A	-0.957	0.858	-0.0811	0.0234	-0.0724
CDK2 (cyclin dependent kinase 2)	0.826	0.994	-0.0265	-0.00627	0.013
MAP3K13 (mitogen-activated protein kinase kinase kinase 13)	0.901	1	0.0368	0.0271	0.0229
LMBR1 (limb development membrane protein 1)	0.76	0.989	-0.0146	0.0263	0.0814
PKIB (cAMP-dependent protein kinase inhibitor beta)	0.901	1	-0.0305	0.0983	0.074
ADGRL2 (adhesion G protein-coupled receptor L2)	-0.322	0.907	-0.159	-0.067	-0.0901
IGF1R (insulin like growth factor 1 receptor)	-0.764	0.873	-0.0247	0.0124	-0.0546
PAPSS2 (3'-phosphoadenosine 5'-phosphosulfate synthase 2)	0.901	1	0.0323	0.0437	0.028
PIK3R1 (phosphoinositide-3-kinase regulatory subunit 1)	0.901	1	-0.0898	-0.0435	-0.0375
STK16 (serine/threonine kinase 16)	0.901	1	-0.0655	0	0.0147
STK32A (serine/threonine kinase 32A)	0.901	1	-0.169	-0.0636	-0.0886
